# Measured values: the supplement of paper PMC10032668
# Protein sequences, listed by entry. Tags and fused reporters are not part of them.
# BCCIP, Q9P287, UniProt Q9P287, whole entry: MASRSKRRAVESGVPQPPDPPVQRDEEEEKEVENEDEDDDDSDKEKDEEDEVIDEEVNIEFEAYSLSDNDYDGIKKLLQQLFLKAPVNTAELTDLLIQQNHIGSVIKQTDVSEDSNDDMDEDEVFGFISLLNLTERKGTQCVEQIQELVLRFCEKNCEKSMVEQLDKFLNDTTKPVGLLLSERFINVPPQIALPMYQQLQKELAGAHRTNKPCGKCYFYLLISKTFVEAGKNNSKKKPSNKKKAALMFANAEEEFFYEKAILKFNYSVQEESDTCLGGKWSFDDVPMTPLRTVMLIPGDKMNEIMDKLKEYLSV
# NDUFS6, O75380, UniProt O75380, whole entry: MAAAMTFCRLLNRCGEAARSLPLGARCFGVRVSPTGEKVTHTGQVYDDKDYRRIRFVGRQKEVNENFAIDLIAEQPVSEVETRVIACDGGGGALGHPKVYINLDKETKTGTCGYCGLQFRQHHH
# NPM1, P06748, UniProt P06748, whole entry: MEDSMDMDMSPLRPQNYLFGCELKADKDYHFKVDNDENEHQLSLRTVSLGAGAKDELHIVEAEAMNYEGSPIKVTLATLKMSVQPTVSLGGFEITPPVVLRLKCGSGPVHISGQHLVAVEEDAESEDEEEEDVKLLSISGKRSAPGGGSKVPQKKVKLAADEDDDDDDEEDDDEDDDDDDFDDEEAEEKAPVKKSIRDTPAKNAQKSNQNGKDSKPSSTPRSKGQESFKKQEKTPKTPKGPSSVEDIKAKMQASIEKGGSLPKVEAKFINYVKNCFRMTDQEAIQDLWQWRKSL
# RBBP4, Q09028, UniProt Q09028, whole entry: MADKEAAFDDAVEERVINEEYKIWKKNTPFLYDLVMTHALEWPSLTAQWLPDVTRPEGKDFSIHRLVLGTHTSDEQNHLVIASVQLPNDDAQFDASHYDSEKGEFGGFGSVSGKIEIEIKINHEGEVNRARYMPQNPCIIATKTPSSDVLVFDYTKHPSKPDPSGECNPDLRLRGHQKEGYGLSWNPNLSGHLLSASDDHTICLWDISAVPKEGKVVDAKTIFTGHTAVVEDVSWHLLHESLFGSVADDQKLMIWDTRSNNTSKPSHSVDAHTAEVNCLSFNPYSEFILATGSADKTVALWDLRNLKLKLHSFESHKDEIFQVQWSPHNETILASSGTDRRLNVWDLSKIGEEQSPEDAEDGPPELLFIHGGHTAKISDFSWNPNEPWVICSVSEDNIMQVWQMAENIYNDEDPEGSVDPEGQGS
# SET, Q01105, UniProt Q01105, whole entry: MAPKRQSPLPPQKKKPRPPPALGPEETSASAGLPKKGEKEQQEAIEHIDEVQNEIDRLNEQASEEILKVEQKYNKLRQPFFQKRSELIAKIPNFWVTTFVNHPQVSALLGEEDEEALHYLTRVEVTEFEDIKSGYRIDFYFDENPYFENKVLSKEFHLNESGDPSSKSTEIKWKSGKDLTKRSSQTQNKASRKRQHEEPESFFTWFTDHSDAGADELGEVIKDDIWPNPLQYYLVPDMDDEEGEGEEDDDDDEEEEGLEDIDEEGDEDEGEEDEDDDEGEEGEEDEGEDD
# SLAIN1, Q8ND83, UniProt Q8ND83, whole entry: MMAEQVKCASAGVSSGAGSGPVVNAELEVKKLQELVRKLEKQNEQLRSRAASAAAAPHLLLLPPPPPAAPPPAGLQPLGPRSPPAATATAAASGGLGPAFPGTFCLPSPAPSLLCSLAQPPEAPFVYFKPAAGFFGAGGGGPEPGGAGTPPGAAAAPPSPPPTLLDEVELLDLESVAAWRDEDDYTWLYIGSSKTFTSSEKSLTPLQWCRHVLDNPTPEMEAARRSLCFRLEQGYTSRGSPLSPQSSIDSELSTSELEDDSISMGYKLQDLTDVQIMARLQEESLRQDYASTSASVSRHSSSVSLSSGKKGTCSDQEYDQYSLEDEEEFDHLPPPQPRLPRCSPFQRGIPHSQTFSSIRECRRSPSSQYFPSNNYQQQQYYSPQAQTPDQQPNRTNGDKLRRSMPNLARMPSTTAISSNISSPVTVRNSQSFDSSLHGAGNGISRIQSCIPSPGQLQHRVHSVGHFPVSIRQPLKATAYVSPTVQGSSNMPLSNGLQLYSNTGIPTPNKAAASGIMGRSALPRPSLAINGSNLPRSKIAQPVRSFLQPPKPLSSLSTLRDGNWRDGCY
# GRWD1, Q9BQ67, UniProt Q9BQ67, whole entry: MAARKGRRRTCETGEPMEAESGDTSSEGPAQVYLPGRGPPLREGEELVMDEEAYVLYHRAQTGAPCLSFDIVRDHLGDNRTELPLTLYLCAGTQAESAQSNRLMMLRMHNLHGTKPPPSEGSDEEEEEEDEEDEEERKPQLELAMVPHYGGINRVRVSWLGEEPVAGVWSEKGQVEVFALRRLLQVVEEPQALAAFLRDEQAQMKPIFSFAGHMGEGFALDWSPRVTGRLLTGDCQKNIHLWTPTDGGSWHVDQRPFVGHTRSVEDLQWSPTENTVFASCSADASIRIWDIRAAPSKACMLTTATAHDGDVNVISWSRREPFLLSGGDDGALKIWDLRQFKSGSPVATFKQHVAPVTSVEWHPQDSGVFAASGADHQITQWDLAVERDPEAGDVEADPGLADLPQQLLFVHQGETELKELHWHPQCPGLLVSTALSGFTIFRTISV
# NDUFA8, P51970, UniProt P51970, whole entry: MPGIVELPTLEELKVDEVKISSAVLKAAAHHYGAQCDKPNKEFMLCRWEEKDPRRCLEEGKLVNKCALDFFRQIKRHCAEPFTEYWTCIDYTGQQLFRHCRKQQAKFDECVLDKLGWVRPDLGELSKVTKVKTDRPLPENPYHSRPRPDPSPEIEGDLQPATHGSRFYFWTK
# PHAX, Q9H814, UniProt Q9H814, whole entry: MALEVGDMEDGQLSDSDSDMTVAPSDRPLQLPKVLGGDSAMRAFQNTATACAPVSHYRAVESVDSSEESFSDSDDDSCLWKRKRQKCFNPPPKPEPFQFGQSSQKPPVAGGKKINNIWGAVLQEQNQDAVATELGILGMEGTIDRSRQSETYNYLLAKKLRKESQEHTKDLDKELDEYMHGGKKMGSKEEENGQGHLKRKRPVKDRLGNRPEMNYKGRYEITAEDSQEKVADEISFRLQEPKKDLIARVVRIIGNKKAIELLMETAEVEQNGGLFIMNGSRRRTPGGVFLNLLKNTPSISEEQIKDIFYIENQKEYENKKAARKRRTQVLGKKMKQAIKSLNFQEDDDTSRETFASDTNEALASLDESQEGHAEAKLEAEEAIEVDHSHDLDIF
# ± gives the standard deviation of the averaged measurements. The list shows a part of the results. The list holds hits alone, and they repeat only in part.
# Legend:
# Experiment in all cases: PRISMA enrichment of interactor (LFQ) in peptide spot vs all other peptide spots (log2 fold change); higher = stronger / more specific binding of the interactor to the peptide
# ANP32A, P39687 = target: ANP32A, P39687
# Protocol: (§1)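 PRISMA: 15-aa overlapping tiles (offset 8 aa) of 60 microproteins, plus SOS1/GLUT1 control peptides, were spot-synthesized on cellulose membranes in triplicate. Membranes were incubated with benzonase-treated HEK293T lysate, and bound proteins were identified by LC-MS/MS with LFQ. Enrichment is the log2 fold change of each protein in one spot versus all other spots. Only interactors passing the significance cutoff are listed.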
# [1] = substrate: BCCIP, Q9P287
# Protocol: as §1
# BRD2, P25440 = target: BRD2, P25440
# Protocol: as §1
# C1QBP, Q07021 = target: C1QBP, Q07021
# Protocol: as §1
# CTNNBL1, Q8WYA6 = target: CTNNBL1, Q8WYA6
# Protocol: as §1
# LLPH, Q9BRT6 = target: LLPH, Q9BRT6
# Protocol: as §1
# MTOR, P42345 = target: MTOR, P42345
# Protocol: as §1
# NAP1L1, P55209 = target: NAP1L1, P55209
# Protocol: as §1
# PTGES3, Q15185 = target: PTGES3, Q15185
# Protocol: as §1
# ANP32B, Q92688 = target: ANP32B, Q92688
# Protocol: as §1
# COPS2, P61201 = target: COPS2, P61201
# Protocol: as §1
# [2] = substrate: CP, P00450
# Protocol: as §1
# ITIH2, P19823 = target: ITIH2, P19823
# Protocol: as §1
# LMF2, Q9BU23 = target: LMF2, Q9BU23
# Protocol: as §1
# MAT1A, Q00266 = target: MAT1A, Q00266
# Protocol: as §1
# NDUFS6, O75380 = target: NDUFS6, O75380
# Protocol: as §1
# NPM1, P06748 = target: NPM1, P06748
# Protocol: as §1
# RAB8A, P61006 = target: RAB8A, P61006
# Protocol: as §1
# RBBP4, Q09028 = target: RBBP4, Q09028
# Protocol: as §1
# SET, Q01105 = target: SET, Q01105
# Protocol: as §1
# SLAIN1, Q8ND83 = target: SLAIN1, Q8ND83
# Protocol: as §1
# SLC37A4, O43826 = target: SLC37A4, O43826
# Protocol: as §1
# SRSF2, Q01130 = target: SRSF2, Q01130
# Protocol: as §1
# STRBP, Q96SI9 = target: STRBP, Q96SI9
# Protocol: as §1
# HIST2H2BE, Q16778 = target: HIST2H2BE, Q16778
# Protocol: as §1
# MRPL37, Q9BZE1 = target: MRPL37, Q9BZE1
# Protocol: as §1
# SEMG1, P04279 = target: SEMG1, P04279
# Protocol: as §1
# SPART, Q8N0X7 = target: SPART, Q8N0X7
# Protocol: as §1
# WDR61, Q9GZS3 = target: WDR61, Q9GZS3
# Protocol: as §1
# XPO6, Q96QU8 = target: XPO6, Q96QU8
# Protocol: as §1
# XPO7, Q9UIA9 = target: XPO7, Q9UIA9
# Protocol: as §1
# ZNF638, Q14966 = target: ZNF638, Q14966
# Protocol: as §1
# GRWD1, Q9BQ67 = target: GRWD1, Q9BQ67
# Protocol: as §1
# IGHMBP2, P38935 = target: IGHMBP2, P38935
# Protocol: as §1
# ILF2, Q12905 = target: ILF2, Q12905
# Protocol: as §1
# LSM5, Q9Y4Y9 = target: LSM5, Q9Y4Y9
# Protocol: as §1
# NDUFA8, P51970 = target: NDUFA8, P51970
# Protocol: as §1
# PHAX, Q9H814 = target: PHAX, Q9H814
# Protocol: as §1
# PSME3, P61289 = target: PSME3, P61289
# Protocol: as §1
# SLC25A1, P53007 = target: SLC25A1, P53007
# Protocol: as §1
binder,measurement,setting,value
ARETRTKNKRAVRCR [CTC-471J1.11],PRISMA enrichment of interactor (log2),"ANP32A, P39687",6.91
same,PRISMA enrichment of interactor (log2),[1],4.12
same,PRISMA enrichment of interactor (log2),"BRD2, P25440",4.28
same,PRISMA enrichment of interactor (log2),"C1QBP, Q07021",6.24
same,PRISMA enrichment of interactor (log2),"CTNNBL1, Q8WYA6",4.33
same,PRISMA enrichment of interactor (log2),"LLPH, Q9BRT6",4.2
same,PRISMA enrichment of interactor (log2),"MTOR, P42345",6.79
same,PRISMA enrichment of interactor (log2),"NAP1L1, P55209",6.29 ± 0.77
same,PRISMA enrichment of interactor (log2),"PTGES3, Q15185",6.48
RKRNHPARSQDTFGG [RP11-464C19.3],PRISMA enrichment of interactor (log2),"ANP32A, P39687",6.95
same,PRISMA enrichment of interactor (log2),"ANP32B, Q92688",5.75
same,PRISMA enrichment of interactor (log2),"C1QBP, Q07021",7.12
same,PRISMA enrichment of interactor (log2),"COPS2, P61201",4.88
same,PRISMA enrichment of interactor (log2),[2],3.99
same,PRISMA enrichment of interactor (log2),"ITIH2, P19823",5.07
same,PRISMA enrichment of interactor (log2),"LMF2, Q9BU23",5.06
same,PRISMA enrichment of interactor (log2),"MAT1A, Q00266",5.25
same,PRISMA enrichment of interactor (log2),"NDUFS6, O75380",4.49
same,PRISMA enrichment of interactor (log2),"NPM1, P06748",4.84
same,PRISMA enrichment of interactor (log2),"RAB8A, P61006",4.82
same,PRISMA enrichment of interactor (log2),"RBBP4, Q09028",5.36
same,PRISMA enrichment of interactor (log2),"SET, Q01105",6.53
same,PRISMA enrichment of interactor (log2),"SLAIN1, Q8ND83",4.55
same,PRISMA enrichment of interactor (log2),"SLC37A4, O43826",4.08
same,PRISMA enrichment of interactor (log2),"SRSF2, Q01130",5.33
same,PRISMA enrichment of interactor (log2),"STRBP, Q96SI9",5.36
GPGAATRAGRGGSTP [C5orf56],PRISMA enrichment of interactor (log2),"ANP32A, P39687",5.38
same,PRISMA enrichment of interactor (log2),"HIST2H2BE, Q16778",5.55
same,PRISMA enrichment of interactor (log2),"LLPH, Q9BRT6",4.76
same,PRISMA enrichment of interactor (log2),"MRPL37, Q9BZE1",4.5
same,PRISMA enrichment of interactor (log2),"SEMG1, P04279",4.24
same,PRISMA enrichment of interactor (log2),"SPART, Q8N0X7",4.04
same,PRISMA enrichment of interactor (log2),"WDR61, Q9GZS3",5.29
same,PRISMA enrichment of interactor (log2),"XPO6, Q96QU8",5.44
same,PRISMA enrichment of interactor (log2),"XPO7, Q9UIA9",6.38
same,PRISMA enrichment of interactor (log2),"ZNF638, Q14966",5.85
RRGTPSRAHRSTART [SLCO5A1],PRISMA enrichment of interactor (log2),"ANP32A, P39687",5.68
same,PRISMA enrichment of interactor (log2),[1],5.29
same,PRISMA enrichment of interactor (log2),"C1QBP, Q07021",6.58
same,PRISMA enrichment of interactor (log2),"CTNNBL1, Q8WYA6",4.97
same,PRISMA enrichment of interactor (log2),"GRWD1, Q9BQ67",4.77
same,PRISMA enrichment of interactor (log2),"IGHMBP2, P38935",5.97
same,PRISMA enrichment of interactor (log2),"ILF2, Q12905",4.8
same,PRISMA enrichment of interactor (log2),"LSM5, Q9Y4Y9",3.97
same,PRISMA enrichment of interactor (log2),"NAP1L1, P55209",6.63 ± 1.1
same,PRISMA enrichment of interactor (log2),"NDUFA8, P51970",4.57
same,PRISMA enrichment of interactor (log2),"PHAX, Q9H814",4.18
same,PRISMA enrichment of interactor (log2),"PSME3, P61289",4.64
same,PRISMA enrichment of interactor (log2),"SET, Q01105",5.88
same,PRISMA enrichment of interactor (log2),"SLC25A1, P53007",5.42
